Data: PubChem BioAssay AID1347423 (Functional Genomics Laboratory (NCATS/FGL), 2020)
The campaign covered roughly 52,000 sequences. About 210 (0.4%) were called active.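 How the source made its calls: active means gene whose silencing raises cell survival under the drug, median off-target-corrected z-score across its silencing RNAs 2 or more; inactive means the rest.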 The list shows a part of the results.

Test: Resistance to Poly (ADP-Ribose) Polymerase inhibitor: Gene Identification via Genome-wide siRNA Screen
Conditions: mouse BRCA2 R2336H ES cells, olaparib, CellTiter-Glo viability; active compounds read high
Procedure, shortened: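 Genome-wide siRNA screen (3 siRNAs/gene, 20 nM) in mouse ES cells carrying hypomorphic BRCA2 R2336H; olaparib 500 nM added 48 h post-transfection, CellTiter-Glo viability 72 h later. Normalized to plate-median negative control; MAD z-scores, gene median, seed-adjusted.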

Sequence | z-score
GACUUUCAUUCACAUAAUGTT against V1rc3 | inactive: -0.392
CGUGCUGUAUGGCAAAGUUTT against Bst1 | inactive: 0.346
GGCACCUAACGACUUCAACTT against Pygm | inactive: 0.366
GGGCCUUUCACUUUUAUUATT against Tmprss2 | inactive: -0.839
GGCACGAUAGUUUUUGAGATT against Myo1h | inactive: 0.366
AGUUCCCACCAAAAACUUATT against LOC435565 | inactive: 0.349
GGCCAUGGAGAUCAUGUUATT against 9430071P14Rik | inactive: 0.669
GGAGUUAGAAUUGAACCUUTT against Mr1 | inactive: -1.04
GCAUCAUUCCUACCGAUGUTT against Ly6g5b | inactive: -0.228
GGAAAACAACAUGAUCGUGTT against BC004012 | inactive: 0.454
GCAGAUCCGAGACAAGUAUTT against Cplx2 | inactive: -2.94
GAGAAAUACCAUUUCCUACTT against Olfr497 | inactive: 0.595
GCCAUCUUAAACAUGCCUGTT against Tdpoz2 | inactive: 0.541
GGCUGUCUUGUCCAAAUGUTT against Olfr1357 | inactive: -0.104
CCUCUACUGUACUUAUACATT against Cpn2 | inactive: -0.288
GCCACACAAAAUUUGGCAUTT against LOC382109 | inactive: 1.23
CCUAAACUGUAGUUGUCUGTT against S100a14 | inactive: 1.1
CCAAUGAGUUAAUCACCUUTT against Olfr1135 | inactive: 1.01
CCGAAUCCUAUAUUUGACATT against Ptprj | inactive: -1.28
GGACAACUAGCUUCUUGUATT against Dnmt2 | inactive: 0.477
GGGCCUGGAUUACUUACACTT against Srpk1 | inactive: 1.32
GGAGUUACCAAUUUUGAAATT against 0610040B21Rik | inactive: -0.519
GGGAUAGCUCUUAUUAUUUTT against Man2b2 | inactive: 0.0226
GCUGUACUUCUAGCUCGGATT against Il17rc | inactive: -1.72
GCCCUGAAAUGAAACUGCUTT against 5530601I19Rik | inactive: 0.618
GCUGUACAUUCCGAUUAUCTT against Olfr1134 | inactive: 1.4
GCAUUCUCAAGUGAGGCGUTT against Atp5k | inactive: 0.484

Sequence | z-score
GGAGAUGGCUUAAAUAAAUTT against Cox6a1 | inactive: 0.136
GCCAGUCCAAAGCUUCAAATT against Eif3s9 | inactive: 1.44
GGAGGAAAUCAGUGCAGAATT against Luc7l | inactive: -3.18
CCAAUCACCAGAGACUAACTT against 9630044O09Rik | inactive: 1.53
GGACCUUUUUUGUUCAAAATT against Rasd1 | inactive: 0.259
GGAUCUCUUCGACUAUAUCTT against Pim2 | inactive: 0.669
GGCCCUAUUUGGCUACGUUTT against Dgat2 | inactive: 2.06
GGGAACUACGCACAACGAATT against Hist1h2aa | inactive: 0.496
CCCUGAAUAAGGCUGAUCUTT against Krt1-2 | inactive: -0.75
GGUGAUCAACUUCCUGAAATT against Hdac11 | inactive: -0.16
GGCCAUACACCUGUGACAUTT against Osr2 | inactive: -0.202
CCUCUACAUUCCAGCCAUGTT against Yif1b | inactive: -0.398
GCUGCAUCGAAAAACUCAGTT against Phr1 | inactive: 0.7
CCUUCUUGUGGGAGUGAAATT against Chodl | inactive: -0.64
CGCAUCAACAAAUUUACAATT against Kcnh7 | inactive: 0.675
GGCAAAAAUGAGAAAGAGATT against Hebp2 | inactive: -0.218
GCUAAUAUACCUCUCAAAATT against 1300003B13Rik | inactive: 0.721
CGUUGGAUCUUGAUAAAACTT against Edg4 | inactive: 0.325
CCGAAUCUCUGUGUACUAUTT against Tubb5 | inactive: -0.325
GCCCACUCAUUCAUGGAAATT against 2410004J23Rik | inactive: 0.523
GCACUGAUGAUGUGGUGGCTT against 1500032L24Rik | inactive: 0.935
GGACUGAAUCAAGUAGAGUTT against Dkk2 | inactive: 0.661
GGUAAACCAAACAAAACCATT against Rpl35a | inactive: -0.512
UGUGGUGAACCCAAUGCACTT against Klk22 | inactive: -1.05
GGUUGUUUAAACUCAGUUUTT against Slco4c1 | inactive: -1.83
CCAAUAACUUCGCUUAUAUTT against Ms4a2 | inactive: 0.801
GGCAAAAACUAUGAACUACTT against Ctsd | inactive: 1.13

Not a retest: entries from further up.
Sequence | z-score
GCCAGUCCAAAGCUUCAAATT against Eif3s9 | inactive: 1.44
GGAGGAAAUCAGUGCAGAATT against Luc7l | inactive: -3.18
CCAAUCACCAGAGACUAACTT against 9630044O09Rik | inactive: 1.53
GGACCUUUUUUGUUCAAAATT against Rasd1 | inactive: 0.259
GGAUCUCUUCGACUAUAUCTT against Pim2 | inactive: 0.669
GGCCCUAUUUGGCUACGUUTT against Dgat2 | inactive: 2.06
GGGAACUACGCACAACGAATT against Hist1h2aa | inactive: 0.496
CCCUGAAUAAGGCUGAUCUTT against Krt1-2 | inactive: -0.75
GGUGAUCAACUUCCUGAAATT against Hdac11 | inactive: -0.16
GGCCAUACACCUGUGACAUTT against Osr2 | inactive: -0.202
CCUCUACAUUCCAGCCAUGTT against Yif1b | inactive: -0.398
GCUGCAUCGAAAAACUCAGTT against Phr1 | inactive: 0.7
CCUUCUUGUGGGAGUGAAATT against Chodl | inactive: -0.64
CGCAUCAACAAAUUUACAATT against Kcnh7 | inactive: 0.675
GGCAAAAAUGAGAAAGAGATT against Hebp2 | inactive: -0.218
GCUAAUAUACCUCUCAAAATT against 1300003B13Rik | inactive: 0.721
CGUUGGAUCUUGAUAAAACTT against Edg4 | inactive: 0.325
CCGAAUCUCUGUGUACUAUTT against Tubb5 | inactive: -0.325
GCCCACUCAUUCAUGGAAATT against 2410004J23Rik | inactive: 0.523

The results go on:

Sequence | z-score
GGAGUGGUCAGCCAAACUUTT against Entpd3 | inactive: 0.105
CCUCACAAGAGGCCUGUGUTT against Fstl1 | inactive: -3.23
GGCCAUUACUCAAAUGUAUTT against Ppp2r2d | inactive: 0.155
GCUCUUUGAGACUAGGCCCTT against Cmya1 | inactive: 0.749
GGAUACAGCAGAUCUUAUUTT against 2410007P03Rik | inactive: -1.33
GCCAGUUUCCGCAUCUACCTT against Hoxa7 | inactive: -0.502
GGCUAUGCUUGAGGGAGUGTT against Oog4 | inactive: -0.0182
GGCCACACAGAAUAGCUCUTT against Taf6l | inactive: 0.419
GGCAUUAGGAUACAUAACATT against 1700047E16Rik | inactive: 0.789
GGAAGAUCAUAAUGGACAGTT against Pcsk9 | inactive: 0.187
GCAAGGCUUGGGUAACCAUTT against Apbb1ip | inactive: -0.851
GCAUCAAGGCUCAUAUGAUTT against Taf15 | inactive: 1.05
CGUAUUGCCUUAGUGUAUGTT against Olfr433 | inactive: 0.29
GCCAUGAGACACCUUCUCUTT against Olfr843 | inactive: -0.106
GUUAUUUGUAUGGUGAGAUTT against Hpcal1 | inactive: -0.459
GGAACUCAGAGCUAAACUUTT against 3110010F15Rik | inactive: -0.404
GCUUCUAAGCCGAAGGCCATT against Hist1h1d | inactive: 0.442
CCAAGAGUAACCUCUACAATT against Hivep3 | inactive: -0.148
GGAGAUACUAUGUUGCAUUTT against Fgf9 | inactive: 0.673
GCAGCAUCCAACUUCCGCUTT against Gpr43 | inactive: -0.97
GGAACAUCUUCACUUAGUATT against Kcna6 | inactive: -0.698
CCAUUUUCUCAGUGAUCAATT against Taar7a | inactive: -0.516
GGAUUACCUGGAGAAGUACTT against Pga5 | inactive: -0.871
GGACAUGGCACAUCAAGUCTT against Rpusd4 | inactive: 0.486
GGCCAUGAUUGUGUUUCAGTT against Tm4sf3 | inactive: 2.8
GGAAUGACGUGGUGUAUCATT against 4633402D15Rik | inactive: -0.773
GGUGUUGAACAAGUGCGACTT against 1700008P20Rik | inactive: 0.944

Sequence | z-score
CCUACGGGAAACGAAAGCUTT against A730085E03Rik | inactive: 1.1
GGUUGUCGGAACCAACCCATT against Lrp5 | inactive: -0.0172
GGGAUUCUGGAAAUCUUUGTT against Esr2 | inactive: 0.365
CCUUUUUGACAUUGUGAUUTT against Nt5c2l1 | inactive: 0.4
GGGAGUGAUGUUCUUAUUGTT against Slc35f2 | inactive: 0.111
GGAAAUCCGAUAAACCACUTT against Grik1 | inactive: -0.7
GGACAAUCUGAUUCAAGUATT against Ms4a2 | inactive: 2.46
GGACUGCAUGAGAUUUCCCTT against Rhoc | inactive: 0.687
GGUUGAACUCUUCUGGGAUTT against Gm191 | inactive: 1.5
GGACACAGAAUGUUCUUGGTT against Rps3 | inactive: -3.09
GGAGGAGUCCCAUAACUCATT against Nurit | inactive: 0.0134
GGACAGAAAGCAAAGGCACTT against Gpr24 | inactive: -0.211
GGAAGAAAACAAUCAGAUGTT against Cd209a | inactive: 0.147
GGGUCUAUUUUAAACCCUUTT against 2610019P18Rik | inactive: 0.8
GGUAGUUCAGAGACACGGGTT against Otos | inactive: -1.21
CCUGGAACUUUUCCCUUAUTT against Olfr232 | inactive: -1.25
GGAACAAGAGAUUGAGCAUTT against 2610529H08Rik | inactive: 2.62
CGCGCUUUUUAGCAAAUAUTT against Hoxa7 | inactive: -0.859
CCAGUCGUGUUACAAUGUUTT against 4933439F11Rik | inactive: -0.776
CCUCAGAUUUCAACCAUAGTT against 2700087I09Rik | inactive: 1.64
GCCAACUUUGCCAUUAAAATT against 1110061N23Rik | inactive: 0.25
GCAUCAGUAUGAGAUUAGGTT against Ccne2 | inactive: 0.24
GCAAUAGAUCUGGUCCUUUTT against Olfr552 | inactive: -1.07
GGUCAAUAUUCUUAUGUCCTT against Edg3 | inactive: 1.41
